The test system of this data set is Caco-2 cells. Particulars: human, Caco-2, 2 h, 25 µM, pH 7.4. As for the experimental part:
The permeability through Caco-2 cells was measured by the same way as in Test Example 15.
It was examined whether the permeability coefficient of the combined compound was changed in the presence of the compound described in Examples or the compound in Comparative Examples.

Consider `CC(C)c1c(C(=O)Nc2ccccc2)c(-c2ccccc2)c(-c2ccc(F)cc2)n1CC[C@@H](O)C[C@@H](O)CC(=O)O` [ATORVASTATIN], for which the “RATE OF INCREASE (%)” value is 100%.
